Results published in PubChem BioAssay AID2685 (National Center for Advancing Translational Sciences (NCATS), 2010).
Some of the results follow. The main result of the screen is listed elsewhere. These columns were measured beside it and carry no call. The list favours compounds with an active or inconclusive main result. The note in brackets gives the kind of curve behind each potency; many fits are weak.

Assay: qHTS Assay for Lipid Storage Modulators in Drosophila S3 Cells;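 for cell number change: cells counted by Cell Tracker Red CMTPX staining in the red channel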
Settings: BODIPY lipid droplet fluorescence, 18-24 h; for cell number change: measured here: cell count max response, cells fed with added oleic acid
Procedure, shortened: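 Drosophila S3 cells got compounds at several concentrations plus oleic acid (400 uM solution). Laser-scanning cytometry with 488 nm excitation read lipid droplets at 500-530 nm and cells at 575-640 nm. Percent activity was relative to 20 uM Triacsin C.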

[1] = measured here: cell number channel AC50, cells fed with added oleic acid
[2] = measured here: lipid fluorescence (Fed channel) AC50, cells fed with added oleic acid

## O=C(Cn1c(=O)n(-c2ccccc2)c(=O)n1CC(=O)N1CCCCC1)N1CCCCC1
  cell number change: -9.32%
[1]
  AC50: 0.731 µM [falling, partial curve, poor fit]

## O=C(NCc1ccccc1Cl)C1CCCN1C(=O)NC1CCCCC1 (stereo unspecified)
  cell number change: 10.1%
[2]
  AC50: 4.11 µM [falling, single point]

## C/C(=N\NC(=O)COc1ccc(C(C)(C)C)cc1)c1ccc(-n2ccnc2)cc1
  cell number change: -60.6%
[1]
  AC50: 23.1 µM [falling, single point]
[2]
  AC50: 16.4 µM [falling, single point]

## CN(C)c1cc(N)c2ccccc2n1 (tested in a mixture with another compound)
  cell number change: 18.9%

## COc1ccc(CCNC(=O)C2CCCN(S(=O)(=O)c3ccc(OC)cc3)C2)cc1 (stereo unspecified)
  cell number change: 11.8%

## CCOC(=O)c1cnc2c(Cl)c(Cl)ccc2c1N1CCN(C)CC1
  cell number change: 4.11%
[2]
  AC50: 1.64 µM [rising, partial curve, poor fit]

## Cc1cc(/N=C/N(C)C)on1
  cell number change: -13.8%
[1]
  AC50: 6.51 µM [falling, single point]

## CCOC(=O)c1sc2cc([N+](=O)[O-])cc(SCCO)c2c1N
  cell number change: -3.92%
[2]
  AC50: 16.4 µM [falling, single point]

## O=C(Nc1ccc(Oc2ccc(NC(=O)Nc3ccccc3Cl)cc2)cc1)Nc1ccccc1Cl
  cell number change: 14.9%
[2]
  AC50: 1.03 µM [falling, full curve]

## COc1ccc(S(=O)(=O)N(C)CC(=O)NCc2ccccc2)cc1OC
  cell number change: -24.3%

## Cc1cc(OCCCC(=O)NCCc2ccccn2)ccc1Cl
  cell number change: 18.3%
[2]
  AC50: 16.4 µM [rising, partial curve]

## Fc1ccc(NC(=S)N2N=CCC2c2ccccc2)cc1 (stereo unspecified)
  cell number change: 8.57%
[1]
  AC50: 0.231 µM [rising, partial curve, poor fit]
[2]
  AC50: 2.59 µM [rising, full curve]

## COC(=O)c1cc(NC(=O)c2cccnc2)cc(C(=O)OC)c1
  cell number change: -23.4%

## CN(CCN1CCc2ccccc2C1)Cc1nc(Cc2ccccc2F)no1
  cell number change: 20.4%
[2]
  AC50: 20.6 µM [rising, partial curve, poor fit]

## COc1ccc(CN2CCN(C(C)C(=O)N3CCc4ccccc43)CC2)cc1OC (stereo unspecified)
  cell number change: -3.81%

## O=C(COc1ccc(C(=O)c2ccccc2)cc1)NC1CCCCC1
[1]
  AC50: 6.51 µM [rising, single point]

## COc1ccc(C(CNC(=O)C(C)Oc2ccc(Br)cc2)N2CCCCC2)cc1 (stereo unspecified)
  cell number change: -11.1%
[2]
  AC50: 32.6 µM [falling, partial curve]

## CCOC(=O)c1ccc(NS(=O)(=O)c2ccc(-c3coc(C)n3)cc2)cc1
  cell number change: 20.2%

## CCOc1ccc(C(C)NC(=O)Nc2ccccc2C(=O)OC)cc1 (stereo unspecified)
  cell number change: 29.9%
[2]
  AC50: 2.31 µM [rising, partial curve]

## COC(=O)c1cc(CNC(=O)c2cccc(Cl)c2Cl)ccc1OC
[2]
  AC50: 0.146 µM [rising, full curve, poor fit]

## Cc1ccc(N2C(=O)CC(N3CCN(S(=O)(=O)c4ccccc4)CC3)C2=O)c(C)c1 (stereo unspecified)
  cell number change: -38.6%
[1]
  AC50: 8.2 µM [falling, partial curve, poor fit]
[2]
  AC50: 29.1 µM [falling, single point]

## Cc1ccc(-c2nnn(CC(=O)N(CC(=O)NC3CCCCC3)c3ccc(F)c(Cl)c3)n2)o1
  cell number change: -53.9%
[1]
  AC50: 23.1 µM [falling, partial curve]
[2]
  AC50: 23.1 µM [falling, partial curve]

## CC(C)(CO)NS(=O)(=O)c1ccc2c(c1)Cc1cc(S(=O)(=O)NC(C)(C)CO)ccc1-2
  cell number change: -9.49%
[2]
  AC50: 29.1 µM [falling, single point]

## COC(=O)c1ccc2nc(NC(=O)C3CC3)sc2c1
  cell number change: 5.37%
[2]
  AC50: 29.1 µM [falling, single point]

## Cc1ccc(N(CC(=O)N/N=C/c2cccs2)S(C)(=O)=O)cc1
[1]
  AC50: 1.64 µM [falling, partial curve]
[2]
  AC50: 2.31 µM [falling, partial curve, poor fit]

## CN=C1c2cc3c(Br)c(OC)ccc3n2CCN1C
  cell number change: -3.13%
[2]
  AC50: 6.51 µM [falling, single point]

## CCN1CCN(CCCN(Cc2ccco2)C(=S)Nc2ccc(C)c(Cl)c2)CC1
[1]
  AC50: 6.51 µM [rising, single point]

## NC(=O)CCN(C1CCCCC1)S(=O)(=O)c1cccc2nsnc12
  cell number change: 17.6%

## Cc1ccc(NC(=O)CCN2C(=O)OC(C)(C)C2(C)O)cc1 (stereo unspecified)
[2]
  AC50: 0.116 µM [falling, partial curve, poor fit]

## O=C(COC(=O)COc1cccc(C(F)(F)F)c1)Nc1ccc(N2CCOCC2)cc1
  cell number change: 27.2%
[2]
  AC50: 29.1 µM [rising, single point]

## COc1ccc(C(=O)NCC(=O)OCC(=O)N2CC(C)CC(C)C2)cc1 (stereo unspecified)
  cell number change: 31.3%
[1]
  AC50: 2.06 µM [rising, full curve, poor fit]

## Cc1ccc(C)c(S(=O)(=O)NNC(=O)Nc2ccccc2Cl)c1
  cell number change: 43.3%
[1]
  AC50: 5.8 µM [rising, full curve]

## COc1ccc(/C=N/NS(=O)(=O)c2ccccc2)cc1OS(=O)(=O)c1ccccc1
  cell number change: -1.94%
[2]
  AC50: 8.2 µM [rising, single point]

## CC(Nc1nc(-c2cccnc2)nc2ccccc12)c1ccc(F)cc1 (stereo unspecified)
  cell number change: 4.84%
[2]
  AC50: 16.4 µM [falling, single point]

## COc1ccc(CN2CCN(CC(O)Cn3c4ccccc4c4ccccc43)CC2)cc1 (stereo unspecified)
[2]
  AC50: 0.82 µM [falling, single point]

## CCN(CC)C(=O)CSc1n[nH]c(=O)n1CCc1ccccc1
  cell number change: 25.7%
[2]
  AC50: 4.11 µM [rising, full curve]

## O=C(NCC1CCCO1)c1cc2cc(Cl)ccc2[nH]1 (stereo unspecified)
  cell number change: -3.31%
[2]
  AC50: 0.58 µM [rising, single point]

## COc1ccc2c(c1)sc(=NC(=O)CS(=O)(=O)c1ccc(F)cc1)n2C
  cell number change: -25%
[1]
  AC50: 0.092 µM [falling, full curve, poor fit]
[2]
  AC50: 3.26 µM [falling, full curve, poor fit]

## COc1cccc(NC(=O)CCN2CCN(C)CC2)c1
  cell number change: -26.6%
[2]
  AC50: 20.6 µM [falling, partial curve]
